Measurements taken from PubChem BioAssay AID2685 (National Center for Advancing Translational Sciences (NCATS), 2010).
This is one part of the list. These are further read-outs of the screen, such as a control signal, another cell line or another target. No call is given for them. The list favours compounds with an active or inconclusive main result. Potencies come from curve fits of mixed quality, noted in brackets.

Assay: qHTS Assay for Lipid Storage Modulators in Drosophila S3 Cells;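 as to cell number change: cells counted by Cell Tracker Red CMTPX staining in the red channel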
Conditions: BODIPY lipid droplet fluorescence, 18-24 h; for cell number change: measured here: cell count max response, cells fed with added oleic acid
Summary of the method: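 Laser-scanning cytometry quantifies lipid droplet accumulation (500–530 nm total intensity; droplet/cell object ratio) in oleic acid-fed (400 uM added) Drosophila S3 cells treated with a concentration series. 20 uM Triacsin C defined 100% inhibition.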

[1] = measured here: cell number channel AC50, cells fed with added oleic acid
[2] = measured here: lipid fluorescence (Fed channel) AC50, cells fed with added oleic acid

| SMILES | cell number change | AC50 [1] | AC50 [2] |
| --- | --- | --- | --- |
| Cc1ccc(-n2ncc3c(=O)n(CC(=O)N4CCN(c5ccccc5)CC4)cnc32)cc1 | 15.1% | 0.082 µM [rising, partial curve, poor fit] | 0.326 µM [rising, full curve, poor fit] |
| CCC(C)(C)c1nnc(NC(=O)C2CCN(C(=O)c3ccco3)CC2)s1 | -5.13% |  |  |
| CC(C)(C)c1ccc(-c2noc(CCC(=O)Nc3cccnc3)n2)cc1 | -21% | 0.00411 µM [falling, full curve, poor fit] |  |
| CCOC(=O)COc1coc(CN2CCN(c3ccc(F)cc3)CC2)cc1=O | -5.38% |  | 6.51 µM [rising, single point] |
| Clc1cccc(-c2cc3nc4c(c(N5CCOCC5)n3n2)CCCC4)c1 | 4.28% |  | 0.58 µM [rising, full curve] |
| CCOC(=O)C1=C(C)N(c2ccc(OC)cc2)C(=O)/C1=C\c1cccs1 | 3.93% |  | 2.59 µM [rising, single point] |
| COc1cccc(CNC(=O)CCNS(=O)(=O)c2cccc3nsnc23)c1 | 37.3% | 1.03 µM [rising, full curve, poor fit] | 0.206 µM [rising, full curve, poor fit] |
| CC1CN(S(=O)(=O)c2ccc(Cl)c(S(=O)(=O)N3CC(C)OC(C)C3)c2)CC(C)O1 (stereo not given) | 0.942% |  | 32.6 µM [falling, single point] |
| CC(=O)Nc1ccc(SCC(=O)N(CCC#N)c2ccc(C)cc2)cc1 | -18.7% |  | 0.00461 µM [falling, full curve, poor fit] |
| CCOc1ccc(CCNC(=O)COC(=O)C2CCN(c3ccc(C(F)(F)F)cn3)CC2)cc1OCC | 0.314% |  | 16.4 µM [falling, single point] |
| c1ccc2c(c1)sc1nnnn12 | -17.3% | 0.651 µM [falling, full curve, poor fit] | 0.461 µM [falling, single point] |
| COc1ccc(Nc2cc(C)nc(NCc3ccccc3)n2)cc1 | -33.6% | 16.4 µM [falling, single point] | 23.1 µM [falling, single point] |
| CCCCNC(=O)Nc1nnc(-c2ccc(Cl)cc2)o1 | -6.18% |  | 0.0206 µM [rising, full curve, poor fit] |
| O=S(=O)(NC1=NCCCCC1)c1ccc2ccccc2c1 | 18% |  |  |
| Cc1cnn(C(=O)c2cc(-c3ccccc3)nc3ccccc23)c1 | -97.8% | 32.6 µM [falling, partial curve, poor fit] |  |
| Nc1ccc(C(=O)OCC(=O)Nc2ccc3c(c2)OCO3)cc1[N+](=O)[O-] | 20% |  |  |
| Cc1ccc(S(=O)(=O)N2CCN(C(=O)COC(=O)Cc3ccc(Cl)cc3)CC2)c(C)c1 | 2.34% |  | 25.9 µM [rising, partial curve, poor fit] |
| CCN(CC)S(=O)(=O)c1ccc(N2CCCCC2)c(NC(=O)C2CCN(C(=O)c3ccc(F)cc3)CC2)c1 | 36.9% | 1.64 µM [rising, partial curve] |  |

| SMILES | cell number change | AC50 [1] | AC50 [2] |
| --- | --- | --- | --- |
| COc1ccc(OC)c(C(c2nnnn2C2CCCC2)N2CCN(c3ccccc3F)CC2)c1 (stereo not given) | 25.5% | 4.11 µM [rising, full curve, poor fit] |  |
| Cc1cc(C(=O)N2C(C)CCCC2C)no1 (stereo not given) | 19.6% |  |  |
| O=C(CN1C(=O)S/C(=C\c2ccc(O)c([N+](=O)[O-])c2)C1=O)Nc1ccc(N2CCOCC2)cc1 | -14.2% | 0.651 µM [falling, full curve, poor fit] |  |
| O=C(O)c1n[nH]c2ccccc12 | -97.1% | 29.1 µM [falling, partial curve] | 20.6 µM [falling, partial curve] |
| CC1CCN(CC(=O)NC2CCCCC2)CC1 | 16.1% |  |  |
| O=C(NCC1CCCCC1)c1ccc(Br)o1 | -13% |  | 29.1 µM [falling, single point] |
| O=S(=O)(Nc1nc2ccccc2nc1NCc1ccco1)c1ccccc1 | -6.71% |  | 4.61 µM [rising, full curve] |
| COc1cc2c(cc1OC)C(C(=O)N1CCN(c3ccccc3)CC1)C(c1cccs1)N(C)C2=O (stereo not given) | -6.18% |  | 6.51 µM [falling, single point] |
| O=C(NCCc1c[nH]c2ccccc12)C(=O)NCC1OCCN1S(=O)(=O)c1ccc(F)cc1 (stereo not given) | 0.886% | 0.651 µM [rising, full curve, poor fit] | 1.03 µM [rising, full curve] |
| COc1ccccc1CCC(=O)Nc1ccc(OC)c(S(=O)(=O)N2CCCCC2)c1 | -11.1% | 6.51 µM [rising, single point] | 6.51 µM [rising, single point] |
| CCCNC(=O)c1ccccc1NC(=O)Nc1ccccc1C | 55.4% | 0.231 µM [rising, full curve] | 2.31 µM [rising, partial curve, poor fit] |
| Cn1c(=O)c2c3c(sc2n2c(SCc4ccc5c(c4)OCO5)nnc12)COC(C)(C)C3 | -1.91% |  | 0.0184 µM [rising, full curve, poor fit] |
| CC1CCCN(C(=O)c2ccc3c(c2)C(=O)N(CCC2=CCCCC2)C3=O)C1 (stereo not given) |  |  | 29.1 µM [falling, single point] |
| O=C(O)CCN1C(=O)c2ccc(Oc3ccc4c(c3)C(=O)N(CCC(=O)O)C4=O)cc2C1=O | 6.38% |  |  |
| CC1CN(Cc2cnc(Cl)s2)CC(C)O1 (stereo not given) | -20.1% |  | 35.5 µM [falling, single point] |
| Cc1ccc(C2(C)NC(=O)N(CC(=O)Nc3ccc(S(=O)(=O)Nc4nccs4)cc3)C2=O)cc1 (stereo not given) | -41.3% | 5.8 µM [falling, partial curve] | 6.51 µM [falling, partial curve] |
| Cn1cc(CCC(=O)NCCCc2ccccc2)c2ccccc21 | 24.6% | 1.64 µM [rising, full curve, poor fit] | 3.66 µM [rising, single point] |
| CCN(CCn1cccn1)C(=O)c1ccc2nc(Cc3ccc(OC)cc3)oc2c1 | -6.12% |  | 0.103 µM [falling, full curve, poor fit] |
